Data as given in PubChem BioAssay AID1259308 (NCATS, 2017).

- Assay: 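Genes whose loss raises luciferase production in HEK293 cells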 (primary screen)
- System: human HEK293 embryonic kidney cells stably expressing firefly luciferase (HEK-CMV-Luc2-Hygro)
- Reagent: single siRNA against human genes, 0.8 pmol siRNA per well
- Time to read-out: 72 h
- Measurement: 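Reporter luminescence and viable-cell signal on separate replicate plates, given as percent of non-targeting control and median/MAD z-scores, plus per-cell luciferase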
- Direction: total luciferase, z-score and total luciferase, % of control: higher = more reporter protein produced; luciferase per cell, z-score: higher = more reporter output per viable cell; viable cells, % of control: higher = more viable cells
- Hit rule: 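Active when the median/MAD z-score for overall luciferase is greater than 3; a gene was taken forward for validation with new siRNAs if at least two of its three siRNAs passed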
- Calls: active = raised luciferase; inactive = no rise
Shown is an unselected part of about 59,000 reagents tested. About 1,510 of them (2.6%) were called active. 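Calls use total luciferase alone and ignore viability, so some active siRNAs may act by altering cell number.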 Entries without a mark were called inactive. The numbers tell different reagents against one gene apart. No sequences are given here.

total luciferase, z-score	total luciferase, % of control	luciferase per cell, z-score	viable cells, % of control	gene symbol	reagent no.
-2.29	36.3	-1.96	67.9	NDUFS2	1
-0.195	78	-0.439	97.9	NDUFS2	2
-1.1	60	-0.788	82.5	NDUFS2	3
1.03	102	0.808	92.5	PRRG4	1
-0.682	68.3	-0.397	84.8	PRRG4	2
-0.279	76.3	-0.608	100	PRRG4	3
-0.131	79.3	-0.394	98.3	MNAT1	1
-0.594	70.1	-0.675	93.5	MNAT1	2
1.89	120	3	60.6	MNAT1	3
0.0834	83.5	-0.114	96.2	GSG1	1
-3.34	15.4	-3.15	39.5	GSG1	2
-0.802	65.9	-1.33	104	GSG1	3
1.83	118	2.7	64.8	SMIM24	1
0.24	86.7	1.32	68.5	SMIM24	2
-1.65	49	-1.38	78.8	SMIM24	3

A portion taken from the entries so far, as a working copy:
total luciferase, z-score	total luciferase, % of control	luciferase per cell, z-score	viable cells, % of control	gene symbol	reagent no.
1.83	118	2.7	64.8	SMIM24	1
0.24	86.7	1.32	68.5	SMIM24	2

Additional records follow.
total luciferase, z-score	total luciferase, % of control	luciferase per cell, z-score	viable cells, % of control	gene symbol	reagent no.
-1.3	56	0.185	59.6	AVIL	1
1.46	111	0.558	107	AVIL	2
-0.222	77.5	-0.4	96.2	AVIL	3
-0.606	69.8	-1	102	ECT2	1
0.426	90.4	0.661	84.8	ECT2	2
-0.551	70.9	-0.797	97.8	ECT2	3
-1.01	61.8	-0.657	82.1	EIF5B	1
-0.147	79	-0.858	111	EIF5B	2
1.86	119	1.79	83	EIF5B	3
